{
  "sequences": {"note": "Protein sequences, listed by entry. Tags and fused reporters are not part of them. Residues count along the entry.", "UniProt P10721, 26-976": "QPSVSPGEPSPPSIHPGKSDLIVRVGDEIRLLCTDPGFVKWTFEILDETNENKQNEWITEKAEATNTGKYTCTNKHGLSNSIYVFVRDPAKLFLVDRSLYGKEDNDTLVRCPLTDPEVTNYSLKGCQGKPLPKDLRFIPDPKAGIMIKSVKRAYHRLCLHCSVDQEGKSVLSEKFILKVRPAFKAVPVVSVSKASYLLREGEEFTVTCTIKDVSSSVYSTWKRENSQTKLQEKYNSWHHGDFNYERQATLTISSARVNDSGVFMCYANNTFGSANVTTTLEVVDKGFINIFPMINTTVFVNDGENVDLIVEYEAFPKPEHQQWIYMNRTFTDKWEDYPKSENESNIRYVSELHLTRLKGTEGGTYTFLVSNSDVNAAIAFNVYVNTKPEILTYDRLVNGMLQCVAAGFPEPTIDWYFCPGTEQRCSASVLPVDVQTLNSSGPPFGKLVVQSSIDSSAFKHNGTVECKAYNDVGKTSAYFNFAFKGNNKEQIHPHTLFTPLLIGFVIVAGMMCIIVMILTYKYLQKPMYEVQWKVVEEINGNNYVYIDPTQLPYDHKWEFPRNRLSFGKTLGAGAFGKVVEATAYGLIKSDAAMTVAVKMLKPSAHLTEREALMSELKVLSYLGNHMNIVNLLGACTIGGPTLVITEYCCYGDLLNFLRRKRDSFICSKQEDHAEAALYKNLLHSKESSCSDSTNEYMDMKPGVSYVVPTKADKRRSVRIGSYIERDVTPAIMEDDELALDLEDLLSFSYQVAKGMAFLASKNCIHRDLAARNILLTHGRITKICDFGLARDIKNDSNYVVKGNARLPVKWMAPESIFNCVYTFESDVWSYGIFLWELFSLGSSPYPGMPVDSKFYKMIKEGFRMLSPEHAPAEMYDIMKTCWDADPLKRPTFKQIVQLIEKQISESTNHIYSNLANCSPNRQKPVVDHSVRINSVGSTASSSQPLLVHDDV"},
  "source": "patent US7994159B2",
  "about": "“c-Kit kinase inhibitor” (Eisai R&D Management Co., Ltd., priority 2003, dated 2011)",
  "key": {"[1]": {"system": "small cell lung cancer cell line H-526 expressing c-Kit kinase", "experiment": "Effect on proliferation of H-526 cells stimulated by SCF (Cell Counting Kit-8)", "assay_type": "cell-based", "conditions": "Homo sapiens, NCI-H526, 7th day after addition of test substance, read-out: IC50, concentration required for 50% inhibition of the cell proliferation stimulated by SCF", "description": "H-526 cells were cultured in a 5% CO2 incubator (37° C.) using an RPMI1640 medium (Nissui Pharmaceutical Co., Ltd.) containing 10% FCS (purchased from Cell Culture Technologies). After culturing, H-526 cells were washed with PBS three times and were suspended in an RPMI1640 medium containing 0.1% BSA (Sigma Corporation) (hereinafter abbreviated as “BSA-RPMI1640”) at 1.0×10^5 cells/ml. […] On the 7th day after addition of the test substance, 20 μl of Cell Counting Kit-8 (Dojin Laboratories) was added to the well and was cultured in a 5% CO2 incubator (37° C.) for about 2 hours. After color development, the absorbance of each well was determined using a MTP-32 plate reader (Colona Electric Co., Ltd.) at a measuring wavelength of 450 nm and at a reference wavelength of 660 nm. The absorbance of each well was subtracted by the absorbance of the well without addition of SCF, and then the ratio of the absorbance of the well with addition of the test substance to the ratio of the absorbance of the well without addition of the test substance was determined. This ratio was used to calculate the concentration of the test substance required for 50% inhibition of the cell proliferation (IC50)."}, "[2]": {"target": "c-Kit kinase (Homo sapiens, UniProt P10721)", "experiment": "c-Kit kinase phosphorylation by SCF stimulation in H-526 cells (immunoblot, phospho-c-kit Tyr719)", "assay_type": "cell-based", "set-up": "in the small cell lung cancer cell line H-526 expressing c-Kit kinase; host or cells: H-526 small cell lung cancer cells", "conditions": "FIG. 1", "description": "H-526 cells were cultured in a 5% CO2 incubator (37° C.) using an RPMI1640 medium containing 10% FCS. After culturing, H-526 cells were washed with PBS three times and were suspended in a BSA-RPMI1640 medium at 5.0×10^5 cells/ml. Each 1 ml of this cell suspension was inoculated to the well of a 24-well plate and the suspension was cultured in a 5% CO2 incubator (37° C.) for 6 hours. After 6-hours culturing, 1 ml of BSA-RPMI1640 containing a diluted test substance was added to each well and culturing was carried out in a 5% CO2 incubator (37° C.) for 1 hour. […] After 5-minutes culturing, the cells were washed with PBS and 100 μl of SDS sample loading buffer was added to the cells to prepare a cell lysate sample. After the sample was heat-treated at 94° C. for 10 minutes, it was cryopreserved at -20° C. […] After electrophoresis, the sample was transferred to a PVDF membrane (Amersham Pharmacia Biotech Inc.) for 3 hours. The transferred membrane was subjected to immunoblot using a phospho-c-kit ([…]) antibody (Cell Signaling Technology Inc.) as a primary antibody and an anti-rabbit IgG, HRP-linked antibody (Cell Signaling Technology Inc.) as a secondary antibody. After the membrane was washed, it was developed with a Super Signal (Pierce Biotechnology, Inc.)."}},
  "data": [
    {"molecule": "Cc1ccc(NC(=O)c2ccc(CN3CCN(C)CC3)cc2)cc1Nc1nccc(-c2cccnc2)n1", "note": "[STI571, reference compound]", "values": [
      {"measurement": "IC50", "setting": "[1]", "result": 190, "unit": "nM"},
      {"measurement": "phosphorylation inhibitory activity relative to that of Compound 1", "setting": "[2]", "result": "approximately one tenth"}
    ]}
  ]
}
